In patent US20080050370A1:
Changes are numbered by the printed parent chain. Numbers in names are those of the source. These are yes or no findings as the source states them, for the method shown. Some entries that bind do so weakly or less than the wild type.

The chains behind the UniProt entries cited, without tags or fusion partners. Residues count along the entry.
UniProt P36941, residues 31-227: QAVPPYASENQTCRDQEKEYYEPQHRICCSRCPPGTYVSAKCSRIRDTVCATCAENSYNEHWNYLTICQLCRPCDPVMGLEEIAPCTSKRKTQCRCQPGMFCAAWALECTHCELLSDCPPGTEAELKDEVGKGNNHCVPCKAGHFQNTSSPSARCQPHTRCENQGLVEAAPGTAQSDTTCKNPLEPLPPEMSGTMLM

Columns and labels:
LTβR-Ig [1] = molecular target: LTβR-Ig (UniProt P36941); assay: thermal challenge assay: E. coli supernatant heated at the temperature on the x axis and cleared, remaining binding to plate-coated LTβR-Ig read by DELFIA (Eu-anti-His6)
sLTβR = sLTβR (UniProt P36941); assay: SPR (Biacore)
LTβR-Ig [2] = molecular target: LTβR-Ig (UniProt P36941); assay: Thermal challenge of E. coli supernatant, then DELFIA on plate-coated LTβR-Ig with Eu-labelled anti-His6 detection. The x axis is the challenge temperature.

B1: BHA10 VH44/VL100 scFv (scFv)
scFv, VH-(Gly4Ser)3-VL: QVQLVQSGAEVKKPGSSVKVSCKASGYTFTTYYLHWVRQAPGQCLEWMGWIYPGNVHAQYNEKFKGRVTITADKSTSTAYMELSSLRSEDTAVYYCARSWEGFPYWGQGTTVTVSSGGGGSGGGGSGGGGSDIQMTQSPSSLSASVGDRVTITCKASQNVGINVAWYQQKPGKAPKSLISSASYRYSGVPSRFSGSGSGTDFTLTISSLQPEDFATYFCQQYDTYPFTFGCGTKVEIK
modifications: disulfide bond between VH44 Cys and VL100 Cys (Kabat)
In the case of B1, the binding (LTβR-Ig [1]) is reported as “binds”.

B2: BHA10 VH44:VL100/(Gly4Ser)4 scFv (scFv)
scFv: QVQLVQSGAEVKKPGSSVKVSCKASGYTFTTYYLHWVRQAPGQCLEWMGWIYPGNVHAQYNEKFKGRVTITADKSTSTAYMELSSLRSEDTAVYYCARSWEGFPYWGQGTTVTVSSGGGGSGGGGSGGGGSGGGGSDIQMTQSPSSLSASVGDRVTITCKASQNVGINVAWYQQKPGKAPKSLISSASYRYSGVPSRFSGSGSGTDFTLTISSLQPEDFATYFCQQYDTYPFTFGCGTKVEIK
In the case of B2, the binding (sLTβR) is reported as “binds” and the binding (LTβR-Ig [1]) is reported as “binds”.

B3: BHA10 scFv VL-S46L, (G4S)4 linker (scFv)
scFv: QVQLVQSGAEVKKPGSSVKVSCKASGYTFTTYYLHWVRQAPGQGLEWMGWIYPGNVHAQYNEKFKGRVTITADKSTSTAYMELSSLRSEDTAVYYCARSWEGFPYWGQGTTVTVSSGGGGSGGGGSGGGGSGGGGSDIQMTQSPSSLSASVGDRVTITCKASQNVGINVAWYQQKPGKAPKLLISSASYRYSGVPSRFSGSGSGTDFTLTISSLQPEDFATYFCQQYDTYPFTFGQGTKVEIKDDDDKSFLEQKLISEEDLNSAVDHHHHHH
B3 was tested, and the binding (LTβR-Ig [2]) was “binds” and the binding (LTβR-Ig [1]) was “binds”.

B4: BHA10 scFv VH-V55G, (G4S)4 linker (scFv)
scFv: B3 scFv with V56G, L182S
In the case of B4, the binding (LTβR-Ig [2]) is reported as “binds”.

B5: BHA10 scFv VH-P101D, (G4S)4 linker (scFv, name in Kabat numbering)
scFv: B2 scFv with C44G, P104D, C236Q
In the case of B5, the binding (LTβR-Ig [2]) is reported as “binds”.
